Earlier results as cited in patent US11504431B2, “Formulations for the suprachoroidal space of an eye and methods” (Emory University, priority 2016, dated 2022).
Like-named read-outs stand apart in the source and are kept apart here. At least one compound was matched to its structure with a doubt left.

Tests used:
[1] = cited from earlier work
[2] = value assumed or taken from literature; cited from earlier work

SMILES: O=C1OC2(c3ccc(O)cc3Oc3cc(O)ccc32)c2ccccc21 [fluorescein]
- molecular (hydrodynamic) diameter [1]: roughly 1 nm
- molecular (hydrodynamic) diameter ([1]; listed as Fluorescein): ~1 nm
- diffusivity [2]: 4.3×10^−6 cm^2/s
